Experimental data: the supplement of paper PMC10338343
± gives the standard deviation. Only a part is listed here, and it is no random draw. The uncertainty is large for many entries.

test system: MILI (PIWIL2) piRISC loaded with piRNA #1 (26 nt); assay: pre-steady-state target cleavage rate (min^-1); MIWI and MILI are mouse PIWI proteins and EfPiwi is from a freshwater sponge; tags in brackets are library labels; higher = faster piRNA-guided slicing of the target; conditions: guide: piRNA #1 5'p-UGAGGUAGUAGGUUGUAUAGUAUCCA; auxiliary factor: 500 nM mouse GTSF1
Outline: (§1)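 At 33 °C in HEPES–potassium acetate buffer, a transcribed, DNA-blocked target RNA library […] was exposed for 0–8 or 0–960 min to 1 nM active affinity-purified piRISC carrying a single synthetic guide, with or without 500 nM GTSF1 partner protein. Uncleaved targets were sequenced and normalised to depth and to weakly complementary targets. With three trials pooled and k3 capped at 0.0001 min^-1, a burst-and-steady-state fit produced the pre-steady-state cleavage rate.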
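Note: 1 nM active piRISC with 0.1 nM target library at 33 °C single turnover.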

Sequence	pre-steady-state target cleavage rate
GGAGACCUAUGAUAACAACCUACUACCUAA	0.00212 ± 0.0038
GGAGACCUAUGAUAUGUUCCAACUACCUGA	0.000228 ± 0.012
GGAGACCUAUGAUUACAACCUACACCUCA	0.000292 ± 0.016
GGAGACCUAUGUAUACAACCAACUACCUGA	0.00218 ± 0.0029
GGAGACCUAUGAUAUCUACCUUCUACCUCA	0.000303 ± 0.0088
GGAGACCUUACUAUACAACCGUACUACCUCA	0.00868 ± 0.0053
GGAGACCUAUGUAAACAACCUACUAGCUCA	0.00495 ± 0.0023
GGAGACCUAUGUAUACAACCUCUACCUCA	0.00061 ± 0.011
GGAGACCUAUGAUUACAACCUUCAACCUCA	0.00188 ± 0.0034
GGAGACCUAUGAUAACAACCUACAUCCUCA	0.00287 ± 0.0034
GGAGACCUAUGAAUACAACCUUCUACCACA	0.00194 ± 0.0036
GGAGACCUAUGAUAACAACCUCUACCUCA	0.00015 ± 0.017
GGAGACCUAUCUAUACAACCUACAUGCUCA	0.068 ± 0.021
GGAGACCUAUGAUAACAACCUACUACCUA	0.00181 ± 0.0038
GGAGACCUAUGAAUACUACGUACUACCUCA	0.0019 ± 0.0028
GGAGACCUAUGAUAACAAUCCUACUACCUCA	0.000428 ± 0.021
GGAGACCUAUGAUAUGUUGGUAAUACCUCA	0.000314 ± 0.022
GGAGACCUAACUAUACAACCUAGAUGGAGA [g9:g21:cont:t1A]	0.000768 ± 0.018
GGAGACCUAUCUAUACAACCUACACCUCA	0.00183 ± 0.0032
GGAGACCUAUGAUAUCAACCAUGUACCUCA	0.000325 ± 0.019

Sequence	pre-steady-state target cleavage rate
GGAGACCUAUGAUUACAUCCAACUACCUCA	0.00328 ± 0.003
GGAGACCUAUGAUAACAACCUACUUGCUCA	0.00218 ± 0.0031
GGAGACCUAUGAUAUCAACCUACUCACCUCA	0.002 ± 0.0034
GGAGACCUAUGAUAACAACCUACUUCCUGA	0.000962 ± 0.0059
GGAGACCUUACUAUACAACCUACACCUCA	0.00208 ± 0.0042
GGAGACCUAUGAUAUGUUCCACUACCUCA	0.000202 ± 0.015
GGAGACCUAACUAUACAACUACUACCUCA	0.00399 ± 0.005
GGAGACCUAUGAAUACAACCUACACCUCA	0.000159 ± 0.019
GGAGACCUAUGAUUACAACCUGACUACCUCA	0.00163 ± 0.0041
GGAGACCUAUCUAUUCAACCAACUACCUCA	0.00282 ± 0.004
GGAGACCUAUGAAUACUACCAACUACCUCA	0.00195 ± 0.0035
GGAGACCUAUGAAUAGUUCCUACUACCUCA	0.000153 ± 0.02
GGAGACCUAUGAUACCAACCUACUACCUCA	0.00272 ± 0.0031
GGAGACCUAUGAUAACAACCAACUAGCUCA	0.00183 ± 0.0044
GGAGACCUAUGAUAUGUUGCUUCAACCUCA	0.000314 ± 0.016
GGAGACCUAUGAUAUCAAACUACUACCUCA	0.00495 ± 0.0026
GGAGACCUAUGAUUACAACCUAGAACCUCA	0.00117 ± 0.0047
GGAGACCUAUGUAUUCAACCAACUACCUCA	0.00205 ± 0.0027
GGAGACCUAUGAUAUCAACCUACUACCUCA	0.00173 ± 0.0042
GGAGACCUAUGAUAUCAACCUAGAACCUCA	0.000265 ± 0.011

test system: MIWI (PIWIL1) piRISC loaded with piRNA #1 (30 nt); assay: as above; conditions: guide: piRNA #1 5'p-UGAGGUAGUAGGUUGUAUAGUAUCCAGAGG; auxiliary factor: 500 nM mouse GTSF1
Outline: as §1

Sequence	pre-steady-state target cleavage rate
GGAGACCUAUGAUAACAACCUACUACCUAA	0.000292 ± 0.0089
GGAGACCUAUGAUAUGUUCCAACUACCUGA	0.000304 ± 0.012
GGAGACCUAUGAUUACAACCUACACCUCA	0.000407 ± 0.013
GGAGACCUAUGUAUACAACCAACUACCUGA	0.00148 ± 0.0042
GGAGACCUAUGAUAUCUACCUUCUACCUCA	0.000216 ± 0.01
GGAGACCUUACUAUACAACCGUACUACCUCA	0.000621 ± 0.016
GGAGACCUAUGUAAACAACCUACUAGCUCA	0.000998 ± 0.0057
GGAGACCUAUGUAUACAACCUCUACCUCA	0.000261 ± 0.011
GGAGACCUAUGAUUACAACCUUCAACCUCA	0.000277 ± 0.006
GGAGACCUAUGAUAACAACCUACAUCCUCA	0.00054 ± 0.0046
GGAGACCUAUGAAUACAACCUUCUACCACA	0.000395 ± 0.0064
GGAGACCUAUGAUAACAACCUCUACCUCA	0.000173 ± 0.015
GGAGACCUAUCUAUACAACCUACAUGCUCA	0.00132 ± 0.006
GGAGACCUAUGAUAACAACCUACUACCUA	0.000315 ± 0.0082
GGAGACCUAUGAAUACUACGUACUACCUCA	0.000527 ± 0.0082
GGAGACCUAUGAUAACAAUCCUACUACCUCA	0.000139 ± 0.027
GGAGACCUAUGAUAUGUUGGUAAUACCUCA	0.000514 ± 0.011
GGAGACCUAACUAUACAACCUAGAUGGAGA [g9:g21:cont:t1A]	0.000138 ± 0.043
GGAGACCUAUCUAUACAACCUACACCUCA	0.000682 ± 0.0074
GGAGACCUAUGAUAUCAACCAUGUACCUCA	0.000535 ± 0.008

Sequence	pre-steady-state target cleavage rate
GGAGACCUAUGAUUACAUCCAACUACCUCA	0.000295 ± 0.0066
GGAGACCUAUGAUAACAACCUACUUGCUCA	0.000652 ± 0.0077
GGAGACCUAUGAUAUCAACCUACUCACCUCA	0.000269 ± 0.0071
GGAGACCUAUGAUAACAACCUACUUCCUGA	0.000183 ± 0.0098
GGAGACCUUACUAUACAACCUACACCUCA	0.000337 ± 0.013
GGAGACCUAUGAUAUGUUCCACUACCUCA	0.0018 ± 0.0027
GGAGACCUAACUAUACAACUACUACCUCA	0.00165 ± 0.0075
GGAGACCUAUGAAUACAACCUACACCUCA	0.000171 ± 0.014
GGAGACCUAUGAUUACAACCUGACUACCUCA	0.000639 ± 0.0081
GGAGACCUAUCUAUUCAACCAACUACCUCA	0.0028 ± 0.0036
GGAGACCUAUGAAUACUACCAACUACCUCA	0.000139 ± 0.012
GGAGACCUAUGAAUAGUUCCUACUACCUCA	0.000107 ± 0.015
GGAGACCUAUGAUACCAACCUACUACCUCA	0.00132 ± 0.0048
GGAGACCUAUGAUAACAACCAACUAGCUCA	0.00012 ± 0.019
GGAGACCUAUGAUAUGUUGCUUCAACCUCA	0.000577 ± 0.0071
GGAGACCUAUGAUAUCAAACUACUACCUCA	0.000161 ± 0.022
GGAGACCUAUGAUUACAACCUAGAACCUCA	0.000442 ± 0.0055
GGAGACCUAUGUAUUCAACCAACUACCUCA	0.000181 ± 0.015
GGAGACCUAUGAUAUCAACCUACUACCUCA	0.000253 ± 0.013
GGAGACCUAUGAUAUCAACCUAGAACCUCA	0.000163 ± 0.016
